Test results reported in patent US20220288223A1 (The Regents of the University of California, priority 2019, published 2022).
The same purity stands for every peptide and may come from a single statement.

Assay: general procedure: Fmoc solid-phase peptide synthesis
Details: conjugation step, analytical HPLC combined with mass spectrometry

Final HPLC purity, >90% purity:
acetyl-GSGSGSQLGPYELWELSHGSGS-PEG-NleTPRSFL-(diamino proprionic)-PEG24-NHS
acetyl-GSGSGSQLGPYELWELSHGSGS-PEG-NleTPRSFL-(diamino proprionic)-PEG24-maleimide
acetyl-HIHDDLLRYYGW-peg-NleTPRSFL-(diamino proprionic)-PEG24-NHS
acetyl-HIHDDLLRYYGW-peg-NleTPRSFL-(diamino proprionic)-PEG24-maleimide
acetyl-QGQSGQCISPRGCPDGPYVMY-peg-NleTPRSFL-(diamino proprionic)-PEG24-NHS
acetyl-QGQSGQCISPRGCPDGPYVMY-peg-NleTPRSFL-(diamino proprionic)-PEG24-maleimide

Same assay, conditions: whole synthesis, analytical HPLC combined with mass spectrometry

Final HPLC purity, >90% purity:
acetyl-(GSGSGSQLGPYELWELSHGSGS)-PEG6-(Nle)TPRSFL-(diamino proprionic (Dap))-amide
acetyl-(HIHDDLLRYYGW)-PEG6-(Nle)TPRSFL-(diamino proprionic (Dap))-amide
acetyl-QGQSGQCISPRGCPDGPYVMY-PEG6-(Nle)TPRSFL-(diamino proprionic)-amide
